PubChem BioAssay AID1259405, NCATS, 2018
Aim: 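Knock-downs that lift recombinant protein yield in hamster ovary cells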 (primary screen). Cell system: Chinese hamster CHO-K1 ovary cells with stable secreted eGFP expression. Knock-down reagent: single siRNA against mouse genes, 0.8 pmol siRNA per well (2 µl of 400 nM stock). Timing: 3 days. Detection: 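Percent of the per-plate non-targeting control median for intracellular GFP per well by laser scanning cytometry and for cell viability by ATP luminescence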. Direction: GFP, % of control: higher = more GFP per well, higher productivity; viability (ATP), % of control: higher = more viable cells (more ATP). Hit rule: 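Called active when intracellular GFP, relative to negative control, is at or above 120%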.
The deposit covers about 50,000 reagents; below is a part drawn at random. In the full data, about 4,000 (8%) are marked active. 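Mouse siRNA library applied to hamster cells; one well for each siRNA.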 The numbers tell different reagents against one gene apart. Reagent sequences are not shown.

With knock-down of Anapc13 #1 the results were GFP, % of control 92.9; viability (ATP), % of control 69.7; inactive. With knock-down of Anapc13 #2, the record shows GFP, % of control 58.6; viability (ATP), % of control 47.2; inactive. Silencing of Anapc13 #3 came out at: GFP, % of control 78.3; viability (ATP), % of control 47.5; inactive. Depletion of Enpp3 #1 resulted in: GFP, % of control 57.1; viability (ATP), % of control 47.9; inactive. Enpp3 #2 scored GFP, % of control 84.1; viability (ATP), % of control 32.4; inactive. Or8g54 #1 showed GFP, % of control 98.5; viability (ATP), % of control 65.3; inactive.

Or8g54 #2 showed GFP, % of control 58.5; viability (ATP), % of control 67; inactive. Knock-down of Or8g54 #3 came out at: GFP, % of control 51.9; viability (ATP), % of control 54.6; inactive. Rhcg #1 gave GFP, % of control 60.6; viability (ATP), % of control 72.2; inactive. Rhcg #2 showed GFP, % of control 58; viability (ATP), % of control 72.8; inactive. Depletion of Rhcg #3 resulted in: GFP, % of control 71.2; viability (ATP), % of control 62.9; inactive. Gpi1 #1 showed GFP, % of control 156; viability (ATP), % of control 96.7; active.

With knock-down of Gpi1 #2, the screen gave GFP, % of control 113; viability (ATP), % of control 114; inactive. For Gpi1 #3, the values are GFP, % of control 66.5; viability (ATP), % of control 44.5; inactive. After knock-down of Cisd1 #1, the screen gave GFP, % of control 54.6; viability (ATP), % of control 58.7; inactive. After knock-down of Cisd1 #2, the record shows GFP, % of control 65.5; viability (ATP), % of control 78.3; inactive. Knock-down of Cisd1 #3 came out at: GFP, % of control 110; viability (ATP), % of control 108; inactive. Silencing of Sertad4 #1 came out at: GFP, % of control 38; viability (ATP), % of control 73.3; inactive.

Sertad4 #2 showed GFP, % of control 49.1; viability (ATP), % of control 63.8; inactive. With knock-down of Sertad4 #3, the screen gave GFP, % of control 48.2; viability (ATP), % of control 66.6; inactive. Cxcl15 #1 scored GFP, % of control 63.6; viability (ATP), % of control 77.8; inactive. Against Cxcl15 #2, the values are GFP, % of control 60.3; viability (ATP), % of control 72.1; inactive. After knock-down of Cxcl15 #3, the screen gave GFP, % of control 28; viability (ATP), % of control 50.7; inactive. Silencing of Cblc #1 came out at: GFP, % of control 75.8; viability (ATP), % of control 59.8; inactive.

Knock-down of Cblc #2 resulted in: GFP, % of control 90.6; viability (ATP), % of control 82.3; inactive. Silencing of Cblc #3 came out at: GFP, % of control 104; viability (ATP), % of control 93.1; inactive. After knock-down of Zfp974 #1 the results were GFP, % of control 62.1; viability (ATP), % of control 66; inactive. Zfp974 #2 scored GFP, % of control 53.6; viability (ATP), % of control 73.7; inactive. Knock-down of Zfp974 #3 gave: GFP, % of control 88.9; viability (ATP), % of control 85.8; inactive.
